Converted amounts (≈) assume the structure as drawn.
System: Aspergillus fumigatus
Assay: Antifungal activity against Aspergillus fumigatus 293 by Etest
Format: functional
How it was run: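 Susceptibility of A. fumigatus 293 by Etest. Amphotericin B read as MIC; micafungin read as minimum effective concentration.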

Q: For `C[C@@H]1[C@H](O)[C@@H](C)/C=C/C=C/C=C/C=C/C=C/C=C/C=C/[C@H](O[C@@H]2O[C@H](C)[C@@H](O)[C@H](N)[C@@H]2O)C[C@@H]2O[C@](O)(C[C@@H](O)C[C@@H](O)[C@H](O)CC[C@@H](O)C[C@@H](O)CC(=O)O[C@H]1C)C[C@H](O)[C@H]2C(=O)O` [AMPHOTERICIN B], which MIC is on record?
A: 0.25 µg/mL (≈ 0.271 µM)

Reference: ChEMBL document CHEMBL1275536, “Efficacy of single-dose liposomal amphotericin B or micafungin prophylaxis in a neutropenic murine model of invasive pulmonary aspergillosis” (2008)
